Test results taken from PMC4225492.
Results are given in words; binding and its absence hold for the method and conditions named. For some assays here: In cells and extracts the contact can be indirect. Some results given as binding are weak or reduced against the parent protein; the word gives no strength. Sequences can lack the tags named with a protein.

Legend:
[1] = target: T1, RETINOBLASTOMA-RELATED (RBR), BiFC fusion (Arabidopsis thaliana) (UniProt Q9LKZ3); assay: split reporter; BiFC in Nicotiana benthamiana leaves; N or C terminal half of YFP fused to the C-terminus of each candidate; quantified as percentage of YFP-positive nuclei over total pavement cells in a field of view; three experiments
T1 sequence: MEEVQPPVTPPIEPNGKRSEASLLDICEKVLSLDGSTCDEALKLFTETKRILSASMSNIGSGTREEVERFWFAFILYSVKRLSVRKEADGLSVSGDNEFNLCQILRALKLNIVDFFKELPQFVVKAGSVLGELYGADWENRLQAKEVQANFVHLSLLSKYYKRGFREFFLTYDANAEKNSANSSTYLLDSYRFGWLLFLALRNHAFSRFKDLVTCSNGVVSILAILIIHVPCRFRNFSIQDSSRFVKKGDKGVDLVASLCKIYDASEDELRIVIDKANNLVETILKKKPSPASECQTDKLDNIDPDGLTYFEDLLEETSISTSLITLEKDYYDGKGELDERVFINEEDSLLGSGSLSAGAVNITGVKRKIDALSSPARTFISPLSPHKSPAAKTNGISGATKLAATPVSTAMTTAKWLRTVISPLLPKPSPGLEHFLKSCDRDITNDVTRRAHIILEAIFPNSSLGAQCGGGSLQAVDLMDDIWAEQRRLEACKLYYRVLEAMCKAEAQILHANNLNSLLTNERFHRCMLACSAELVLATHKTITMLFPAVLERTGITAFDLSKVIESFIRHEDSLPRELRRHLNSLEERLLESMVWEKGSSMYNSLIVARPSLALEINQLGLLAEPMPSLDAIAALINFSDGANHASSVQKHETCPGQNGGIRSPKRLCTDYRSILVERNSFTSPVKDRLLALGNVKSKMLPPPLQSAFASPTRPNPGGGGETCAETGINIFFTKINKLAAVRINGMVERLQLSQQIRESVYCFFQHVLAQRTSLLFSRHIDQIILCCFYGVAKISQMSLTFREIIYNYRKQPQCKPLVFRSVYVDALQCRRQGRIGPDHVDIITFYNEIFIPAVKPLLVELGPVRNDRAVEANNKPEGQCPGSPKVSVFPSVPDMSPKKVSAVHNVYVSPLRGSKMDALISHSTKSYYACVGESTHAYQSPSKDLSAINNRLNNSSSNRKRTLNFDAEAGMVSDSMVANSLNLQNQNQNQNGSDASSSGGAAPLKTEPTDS

[2] = target: T2, RETINOBLASTOMA-RELATED (RBR), yeast two-hybrid fusion (Arabidopsis thaliana) (UniProt Q9LKZ3); assay: two-hybrid; yeast strain AH109; vectors pGADT7 and pXDGATcy86; pairwise interactions tested by growth complementation on nutritional selective media
T2 sequence: T1 sequence

B1: FAMA (wild type), BiFC fusion (protein, UniProt Q56YJ8 1-414)
chain: MDKDYSAPNFLGESSGGNDDNSSGMIDYMFNRNLQQQQKQSMPQQQQHQLSPSGFGATPFDKMNFSDVMQFADFGSKLALNQTRNQDDQETGIDPVYFLKFPVLNDKIEDHNQTQHLMPSHQTSQEGGECGGNIGNVFLEEKEDQDDDNDNNSVQLRFIGGEEEDRENKNVTKKEVKSKRKRARTSKTSEEVESQRMTHIAVERNRRKQMNEHLRVLRSLMPGSYVQRGDQASIIGGAIEFVRELEQLLQCLESQKRRRILGETGRDMTTTTTSSSSPITTVANQAQPLIITGNVTELEGGGGLREETAENKSCLADVEVKLLGFDAMIKILSRRRPGQLIKTIAALEDLHLSILHTNITTMEQTVLYSFNVKITSETRFTAEDIASSIQQIFSFIHANTNISGSSNLGNIVFT
binding [1]: binds

B2: FAMA (wild type), yeast two-hybrid fusion (protein, UniProt Q56YJ8 1-414)
chain: B1 chain
binding [2]: binds
